Laboratory results from PubChem BioAssay AID504834 (National Center for Advancing Translational Sciences (NCATS), 2011).
In all, about 320,000 compounds went through this assay and about 22,000 (6.9%) were called active. Inconclusive results, whose numbers are uncertain, are shown with a selection of clear calls. Calls come from the whole dose curve; as a rule, active = well fitted inhibition curve with a large enough effect; inconclusive = small, poorly fitted or top-dose-only effect, or another doubt; inactive = no such curve, though single readings can be large or run the other way. Potencies beside an inconclusive call are fits to weak or partial responses and may not hold up.

test: Primary qHTS for delayed death inhibitors of the malarial parasite plastid, 96 hour incubation; settings: P. falciparum luciferase reporter growth; series mostly up to 28.7 µM; activity change, negative = inhibition: at the top concentration
Outline: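 Readout is luminescence from an integrated firefly luciferase in P. falciparum. Red cells, 2% hematocrit and 0.05% parasitemia final, were cultured with compound through two parasite generations (96 hours) at 37 C, 5% CO2.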
% is set by controls: 0 for no effect and ±100 for the full control effect; potency is the fitted concentration of half-maximal effect.

SMILES | activity change, negative = inhibition | Potency
CC(=O)NCCc1nc2cc(NC(=O)c3ccc(Cl)cc3)ccc2n1C | inactive: 122% | 
CCCCNc1c(-c2ccc(OC)c(Sc3ccc(OC)cc3)c2)nc2ccccn12 |  | inconclusive: 8.28 µM [inhibitor, single point]
Fc1ccc(NC(=S)NCCN2CCOCC2)c(F)c1F | inactive: 26% | 
COc1cc2c(cc1OC)CN(C(=O)CCNS(=O)(=O)c1ccc(Br)cc1)CC2 |  | inconclusive: 4.15 µM [inhibitor, partial curve, poor fit]
O=C(C1CCC(=O)N1C1CCCCC1)N1CCC2(CC1)OCCO2 (centres undefined) |  | inconclusive: 11.7 µM [inhibitor, single point]
CCC(C(=O)N1C[C@H]2C[C@@H](C1)c1cccc(=O)n1C2)c1ccccc1 (some centres undefined) |  | inconclusive: 4.15 µM [inhibitor, single point]
Cc1cc(OCc2cc(C(=O)N(C)Cc3nonc3C)no2)cc(C)c1Cl |  | inconclusive: 16.5 µM [inhibitor, single point]
CCOC(=O)C1CCN(C(=O)c2cccc(S(=O)(=O)N3c4ccccc4CC3C)c2)CC1 (centres undefined) |  | inconclusive: 18.5 µM [inhibitor, single point]
NS(=O)(=O)c1ccc(NC(=O)/C=C/c2ccccc2Cl)cc1 |  | active: 10.4 µM
O=C1CCN(Cc2ccc(Br)cc2)CCN1[C@H](CO)c1ccccc1 | inactive: -13.5% | 
COc1cccc(/C(O)=C2/C(=O)C(=O)N(CCN(C)C)C2c2ccccn2)c1 (centres undefined) |  | inconclusive: 0.415 µM [inhibitor, full curve, poor fit]
CCOc1cc(/C=C2\SC(=S)N(N3CCOCC3)C2=O)ccc1O | inactive: 20.7% | 
COc1ccc(C(c2nnnn2CC2CCCO2)N2CCN(c3ccc(F)cc3)CC2)cc1 (centres undefined) |  | active: 8.28 µM
CC(=O)c1sc(NC(=O)c2ccc(Br)o2)nc1C |  | inconclusive: 10.4 µM [inhibitor, partial curve, poor fit]
NS(=O)(=O)c1ccc(CCn2c(=S)[nH]c3ccc(F)cc3c2=O)cc1 |  | inconclusive: 2.94 µM [inhibitor, full curve, poor fit]
Cc1ccc(-c2nc(P(=O)(c3ccccc3)c3ccccc3)c(N3CCOCC3)o2)cc1 |  | active: 10.4 µM
CC(C)(C)OC(=O)NN=C(c1ccc(O)cc1)c1ccc(O)cc1 |  | inconclusive: 18.5 µM [inhibitor, single point]
CCN1CCN(CCCNC(=O)C2CCCN(c3nnc(-n4cccc4)s3)C2)CC1 (centres undefined) |  | inconclusive: 10.4 µM [inhibitor, single point]
CCn1ncc(NC(=S)Nc2ccc(OC)c(OC)c2)c1C(N)=O |  | inconclusive: 10.4 µM [inhibitor, single point]
COc1nc(OC)nc(N2CCC(C(=O)NCc3cccs3)CC2)n1 |  | inconclusive: 10.4 µM [inhibitor, partial curve, poor fit]
COC(=O)CCCNC(=O)c1ccc(OS(=O)(=O)c2cc([N+](=O)[O-])ccc2C)cc1 |  | inconclusive: 18.5 µM [inhibitor, single point]
C[C@]12C=CC(=O)C=C1CC[C@@H]1[C@@H]2C(=O)C[C@@]2(C)[C@H]1CC[C@]2(O)C(=O)CO |  | inconclusive: 10.4 µM [inhibitor, single point]
CCOC(=O)COc1ccc(/C=C2\C(=O)NC(=S)N(c3ccc(OC)cc3)C2=O)cc1OC |  | inconclusive: 18.5 µM [inhibitor, single point]

SMILES | activity change, negative = inhibition | Potency
O=C(Nc1cccc(C(=O)O)c1)/C(=C\c1ccccc1)NC(=O)c1cccc2ccccc12 |  | inconclusive: 0.0041 µM [inhibitor, full curve, poor fit]
CCOC(=O)C[N+](CC)(CC)CC#Cc1ccccc1 | inactive: 63.1% | 
O=C(NC(=S)Nc1cc(Cl)ccc1O)c1cccc(Br)c1 |  | active: 3.29 µM
Cc1ccc(C(=O)Nc2sc3c(c2C(=O)O)CCCCC3)o1 |  | inconclusive: 18.5 µM [inhibitor, single point]
Cc1ccc(N2CN=C3SCC(=O)N3C2)cc1C |  | inconclusive: 18.5 µM [inhibitor, single point]
Clc1ccccn1 |  | inconclusive: 2.33 µM [inhibitor, single point]
O=C(O)C1=CC2c3ccccc3C1c1ccccc12 |  | active: 10.4 µM
NC(=O)c1nsc(C(=O)N(c2cccc(F)c2)C(C(=O)NCC2CCCO2)c2ccc3ncccc3c2)c1N (centres undefined) |  | inconclusive: 14.7 µM [inhibitor, single point]
CCc1ccc(NC(=O)c2cc(-c3ccco3)on2)cc1 |  | active: 2.94 µM
Cc1ccc(S(=O)(=O)N2CCN(C(=O)Cc3ccsc3)CC2)c(C)c1 |  | inconclusive: 18.5 µM [inhibitor, single point]
CC(C)CN(C(=O)CSc1ccc2c(c1)OCCO2)c1c(N)n(CC(C)C)c(=O)[nH]c1=O |  | inconclusive: 10.4 µM [inhibitor, partial curve, poor fit]
COc1ccc(C(C)=O)cc1CSc1nc(C)cc(C)n1 |  | inconclusive: 10.4 µM [inhibitor, single point]
CC(OC(=O)c1ccco1)C(=O)NCc1cccs1 (centres undefined) |  | active: 11.7 µM
COc1ccc(COC(=O)C2=C(C)NC(=O)NC2c2cc(Br)c(O)c(OC)c2)cc1 (centres undefined) |  | inconclusive: 11.7 µM [inhibitor, single point]
COc1ccc(C(=S)N2CCN(S(=O)(=O)c3ccccc3)CC2)cc1 |  | inconclusive: 18.5 µM [inhibitor, single point]
O=C(CC1CCCCC1)NCc1ccc(Cl)cc1 |  | inconclusive: 11.7 µM [inhibitor, single point]
Cc1ccc2nc(C)c(C(=O)O)cc2c1 |  | inconclusive: 1.04 µM [inhibitor, partial curve, poor fit]
O=C(CCS(=O)CCC(=O)NCc1ccccc1)NCc1ccccc1 | inactive: 52% | 
CO/N=C/NC(=O)c1c(OC)ccnc1Oc1cccc(C(F)(F)F)c1 |  | inconclusive: 4.15 µM [inhibitor, single point]
COC(=O)c1ccc(NC(=O)COC(=O)c2nc3nccc(C)n3n2)cc1 |  | inconclusive: 0.329 µM [inhibitor, full curve]
COc1ccc(-c2ccc3nnc(SCC(N)=O)n3n2)cc1 | inactive: 0% | 
CCC1=C2CC[C@H]3C(=O)N(CC)C(=O)[C@H]3[C@H]2[C@@]2(Cc3ccccc3)C(=O)N(Cc3ccccc3)C(=O)N2C1=O |  | inconclusive: 18.5 µM [inhibitor, single point]
O=C(N/N=C(\c1ccccc1)c1ccccn1)c1ccccc1Cl |  | active: 2.62 µM

Some of the entries above, reformatted:
Cc1ccc(S(=O)(=O)N2CCN(C(=O)Cc3ccsc3)CC2)c(C)c1
  Potency: inconclusive: 18.5 µM [inhibitor, single point]
COc1ccc(-c2ccc3nnc(SCC(N)=O)n3n2)cc1
  activity change, negative = inhibition: inactive: 0%

(next part)

SMILES | activity change, negative = inhibition | Potency
CCCCCC(=O)Nc1ccc(-c2nnc3n2CCCCC3)cc1 |  | inconclusive: 18.5 µM [inhibitor, single point]
Cc1cccc(C2=NN(c3ccc(Br)cc3)[C@@H](C(=O)N3CCOC3=O)[C@@H]2c2ccc(F)cc2)c1 |  | inconclusive: 18.5 µM [inhibitor, single point]
CN(Cc1ccco1)c1ncnc2ccc(-c3cccnc3)cc12 |  | inconclusive: 18.5 µM [inhibitor, single point]
Cc1nnc(SCc2nnc(-c3ccccc3Br)o2)s1 |  | inconclusive: 10.4 µM [inhibitor, single point]
O=C(COc1ccc(Cl)cc1)NNC(=O)c1ccccn1 |  | inconclusive: 18.5 µM [inhibitor, single point]
Cc1cccc(COCC(Cc2ccccc2)N2CCN(C(=O)c3cc(Cl)cc(Cl)c3)CCC2=O)c1 (centres undefined) |  | active: 14.7 µM
CCCCCc1nnc(NC(=O)c2cccc(S(=O)(=O)N3CCOCC3)c2)s1 |  | inconclusive: 18.5 µM [inhibitor, single point]
Clc1ccc(Cn2ccc(-c3ccc4c(c3)OCO4)n2)cc1Cl | inactive: 123% | 
Cc1cc2c3c(c1)C1(SCC(=O)N1c1ccc(F)cc1)C(=O)N3C(C)(C)CC2C (centres undefined) |  | inconclusive: 4.15 µM [inhibitor, full curve, poor fit]
COc1ccc(-n2c(=S)[nH]c3cc(C(=O)Nc4cccc(C)c4)ccc3c2=O)cc1 |  | inconclusive: 7.38 µM [inhibitor, partial curve]
CCOc1c(Cl)cc(CNCc2ccccn2)cc1OC | inactive: 43.7% [at 5.75 µM] | 
O=C1c2cccnc2C(=O)N1Cc1ccc(S(=O)(=O)NCc2ccco2)s1 |  | inconclusive: 18.5 µM [inhibitor, single point]
CC1CCC(NC(=O)c2ccc(NC(=O)c3ccc(=O)[nH]c3)cc2)CC1 (centres undefined) | inactive: -19.1% | 
COc1ccc(N2CCN(C(CNC(=O)C(=O)NC3CC3)c3ccco3)CC2)cc1 (centres undefined) | inactive: 22.6% | 
O=C1c2ccccc2C(=O)N1CCN1CCOCC1 | inactive: 24.7% | 
CCOC(=O)C1CCCN(C2=NC(=O)/C(=C/c3ccc(O)c(OC)c3)S2)C1 (centres undefined) |  | inconclusive: 18.5 µM [inhibitor, single point]
COc1ccccc1CNC(=O)COC(=O)C1CC1 | inactive: -3.76% | 
CCOC(=O)c1sc(=S)n(-c2ccc(C)cc2)c1N |  | inconclusive: 2.94 µM [inhibitor, full curve, poor fit]
Nc1cc(N)nc(SCC(=O)NNC(=O)c2ccc(Cl)cc2)n1 |  | inconclusive: 10.4 µM [inhibitor, single point]
CCSc1nc2ccccc2c(=O)n1CCc1ccc(OC)c(OC)c1 | inactive: -8.08% | 
OC1(c2ccc(OC(F)F)cc2)CSC(=Nc2cccnc2)N1Cc1ccco1 (centres undefined) |  | inconclusive: 11.7 µM [inhibitor, partial curve]
COCCCn1c(SCC(=O)n2c(C)c(C)c3ccccc32)nnc1-c1ccoc1C | inactive: 1.67% | 
c1ccc(-c2ccccc2OCCCCn2ccnc2)cc1 |  | inconclusive: 2.94 µM [inhibitor, partial curve, poor fit]

Three of the compounds above, comma-delimited.
SMILES,"activity change, negative = inhibition",Potency
Cc1cc(OCc2cc(C(=O)N(C)Cc3nonc3C)no2)cc(C)c1Cl,,"inconclusive: 16.5 µM [inhibitor, single point]"
CCOC(=O)C1CCN(C(=O)c2cccc(S(=O)(=O)N3c4ccccc4CC3C)c2)CC1 (centres undefined),,"inconclusive: 18.5 µM [inhibitor, single point]"
NS(=O)(=O)c1ccc(NC(=O)/C=C/c2ccccc2Cl)cc1,,active: 10.4 µM
